Data: PubChem BioAssay AID328 (DTP/NCI, 2004)
The list shows only some results of the screen, not a fair sample: it gathers tests that were run many times, whatever their T/C, doses with no T/C, and many T/C values between a quarter and a half above the control. Other doses and runs of a compound stand elsewhere. T/C gives the treated animals as a percentage of the vehicle group. Some doses have a count of surviving animals in place of a T/C: the source files T/C as zero there, which appears to mark a toxic dose or a test without result, not a measured value. Some doses without a T/C left all or most animals alive at the check, yet need not have been tolerated: survival well below the control is almost never listed, so the zero probably covers shortened survival too. Survivors were counted at the toxicity check, usually on the fifth day, unless a day is given; later deaths do not show. Schedules are NCI's codes, taken here to give the interval after Q, in days (D) or hours (H), and the number of doses after X. Where survival is the endpoint, this PubChem deposit counts one and a half times the control or more as active, and values a quarter to a half above the control carry no call in these data; other NCI protocols may use other cut-offs. Some T/C values are followed by the survivors on the day toxicity was checked, most often the fifth; without a count, all were alive then.

Tested on: BDF1 mice, P388 leukemia ip, median survival T/C
Test: NCI In Vivo Anticancer Drug Screen. Data for tumor model P388 Leukemia (intraperitoneal) in B6D2F1 (BDF1) mice
Conditions: T/C endpoint: median survival time, higher T/C = longer survival
Summary of the method: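 Vehicle-dosed animals serve as the reference; survival of compound-dosed, tumour-implanted mice is divided by it.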

## COC1=C(N)C(=O)c2nc(-c3nc(C(=O)O)c(C)c(-c4ccc(OC)c(OC)c4O)c3N)ccc2C1=O
dose: 0.02 mg/kg/injection, schedule: Q01DX010 (ip), vehicle: saline
  T/C: 130 % of control
dose: 0.03 mg/kg/injection, schedule: Q01DX010 (ip), vehicle: saline
  T/C: 127 % of control
dose: 0.05 mg/kg/injection, schedule: Q01DX009 (ip), vehicle: other
  T/C: 127 % of control
dose: 0.05 mg/kg/injection, schedule: Q01DX010 (ip), vehicle: other
  T/C: 136 % of control
dose: 0.07 mg/kg/injection, schedule: Q01DX009 (ip), vehicle: dioxane, evaluated on day 5
  T/C: 126 % of control
dose: 0.07 mg/kg/injection, schedule: Q01DX009 (ip), vehicle: dioxane, evaluated on day 30
  T/C: 126 % of control
dose: 0.08 mg/kg/injection, schedule: Q01DX009 (ip), vehicle: saline with Tween-80
  T/C: 139 % of control
dose: 0.1 mg/kg/injection, schedule: Q01DX009 (ip), vehicle: other
  T/C: 140 % of control
dose: 0.1 mg/kg/injection, schedule: Q01DX010 (ip), vehicle: other
  T/C: 145 % of control
dose: 0.1 mg/kg/injection, schedule: Q01DX010 (ip), vehicle: steroid suspending solution
  T/C: 145 % of control
dose: 0.1 mg/kg/injection, schedule: Q01DX010 (ip), vehicle: water
  T/C: 145 % of control
dose: 0.1 mg/kg/injection, schedule: Q04DX002 (ip), vehicle: saline
  T/C: 127 % of control
dose: 0.12 mg/kg/injection, schedule: Q01DX009 (ip), vehicle: saline with Tween-80
  T/C: 135 % of control
dose: 0.18 mg/kg/injection, schedule: Q01DX009 (ip), vehicle: saline with Tween-80
  T/C: 139 % of control
dose: 0.19 mg/kg/injection, schedule: Q01DX010 (ip), vehicle: other
  T/C: 136 % of control
dose: 0.19 mg/kg/injection, schedule: Q01DX010 (ip), vehicle: steroid suspending solution
  T/C: 140 % of control
dose: 0.2 mg/kg/injection, schedule: Q01DX009 (ip), vehicle: other
  T/C: 131 % of control
dose: 0.2 mg/kg/injection, schedule: Q01DX009 (ip), vehicle: saline
  T/C: 133 % of control
dose: 0.2 mg/kg/injection, schedule: Q01DX010 (ip), vehicle: saline
  T/C: 131 % of control
dose: 0.2 mg/kg/injection, schedule: Q01DX010 (ip), vehicle: water
  survivor count: 6 of 6
dose: 0.2 mg/kg/injection, schedule: Q04DX009 (ip), vehicle: saline
  T/C: 138 % of control
dose: 0.25 mg/kg/injection, schedule: Q04DX003 (ip), vehicle: other
  T/C: 133 % of control
dose: 0.38 mg/kg/injection, schedule: Q01DX010 (ip), vehicle: other
  survivor count: 6 of 6
dose: 0.38 mg/kg/injection, schedule: Q01DX010 (ip), vehicle: steroid suspending solution
  survivor count: 6 of 6
dose: 0.39 mg/kg/injection, schedule: Q04DX002 (ip), vehicle: saline
  T/C: 139 % of control
dose: 0.39 mg/kg/injection, schedule: Q04DX009 (ip), vehicle: saline
  T/C: 138 % of control
dose: 0.4 mg/kg/injection, schedule: Q01DX009 (ip), vehicle: saline
  T/C: 145 % of control
dose: 0.4 mg/kg/injection, schedule: Q01DX010 (ip), vehicle: water
  survivor count: 6 of 6
dose: 0.4 mg/kg/injection, schedule: Q04DX003 (ip), vehicle: other
  T/C: 127 % of control
dose: 0.4 mg/kg/injection, schedule: Q08DX002 (ip), vehicle: other
  T/C: 127 % of control
dose: 0.5 mg/kg/injection, schedule: Q08DX002 (ip), vehicle: other
  T/C: 125 % of control
dose: 0.76 mg/kg/injection, schedule: Q01DX010 (ip), vehicle: steroid suspending solution
  survivor count: 2 of 6
dose: 0.78 mg/kg/injection, schedule: Q04DX009 (ip), vehicle: saline
  survivor count: 3 of 3
dose: 0.8 mg/kg/injection, schedule: Q01DX010 (ip), vehicle: water
  survivor count: 6 of 6
dose: 1.0 mg/kg/injection, schedule: Q04DX003 (ip), vehicle: other
  survivor count: 10 of 10
dose: 1.6 mg/kg/injection, schedule: Q01DX001 (ip), vehicle: other
  survivor count: 8 of 10
dose: 1.6 mg/kg/injection, schedule: Q08DX002 (ip), vehicle: other
  survivor count: 9 of 10
dose: 2.0 mg/kg/injection, schedule: Q01DX001 (ip), vehicle: other
  survivor count: 0 of 10
dose: 2.0 mg/kg/injection, schedule: Q03HX008 (ip), vehicle: other
  survivor count: 10 of 10
dose: 2.0 mg/kg/injection, schedule: Q04DX003 (ip), vehicle: other
  survivor count: 1 of 10
dose: 2.0 mg/kg/injection, schedule: Q08DX002 (ip), vehicle: other
  survivor count: 4 of 10
dose: 4.0 mg/kg/injection, schedule: Q01DX001 (ip), vehicle: other
  survivor count: 0 of 10
dose: 4.0 mg/kg/injection, schedule: Q08DX002 (ip), vehicle: other
  survivor count: 0 of 10
dose: 8.0 mg/kg/injection, schedule: Q01DX001 (oral), vehicle: other
  survivor count: 6 of 10
dose: 16.0 mg/kg/injection, schedule: Q01DX001 (oral), vehicle: other
  survivor count: 1 of 10
dose: 12.5 micrograms/kg/injection, schedule: Q01DX010 (ip), vehicle: steroid suspending solution
  T/C: 125 % of control
dose: 25.0 micrograms/kg/injection, schedule: Q01DX010 (ip), vehicle: steroid suspending solution
  T/C: 140 % of control
dose: 31.3 micrograms/kg/injection, schedule: Q03HX024 (ip), vehicle: other
  T/C: 125 % of control
dose: 50.0 micrograms/kg/injection, schedule: Q01DX010 (ip), vehicle: steroid suspending solution
  T/C: 125 % of control
dose: 62.5 micrograms/kg/injection, schedule: Q01DX009 (ip), vehicle: other
  T/C: 141 % of control
dose: 100.0 micrograms/kg/injection, schedule: Q01DX010 (ip), vehicle: steroid suspending solution
  T/C: 140 % of control [5 of 6 alive]
dose: 125.0 micrograms/kg/injection, schedule: Q01DX009 (ip), vehicle: other
  T/C: 141 % of control
dose: 144.0 micrograms/kg/injection, schedule: Q04DX003 (ip), vehicle: alkali diluted with saline
  T/C: 127 % of control
dose: 240.0 micrograms/kg/injection, schedule: Q04DX003 (ip), vehicle: alkali diluted with saline
  T/C: 135 % of control
dose: 250.0 micrograms/kg/injection, schedule: Q03HX016 (ip), vehicle: other
  survivor count: 10 of 10
dose: 250.0 micrograms/kg/injection, schedule: Q03HX024 (ip), vehicle: other
  survivor count: 10 of 10
dose: 400.0 micrograms/kg/injection, schedule: Q04DX003 (ip), vehicle: alkali diluted with saline
  T/C: 126 % of control
dose: 500.0 micrograms/kg/injection, schedule: Q01DX009 (ip), vehicle: other
  survivor count: 10 of 10
dose: 500.0 micrograms/kg/injection, schedule: Q03HX008 (ip), vehicle: other
  survivor count: 0 of 10
dose: 500.0 micrograms/kg/injection, schedule: Q03HX016 (ip), vehicle: other
  survivor count: 2 of 10

## COC(=O)c1c(C)ccc2c(O)c3c(cc12)C(=O)c1c2c(cc(O)c1C3=O)C1(C)OC(C)(O2)C(O)C(N(C)C)C1O (stereo unspecified)
dose: 35.0 mg/kg/injection, schedule: Q01DX009 (ip), vehicle: Klucel (hydroxypropylcellulose) (HPC)
  T/C: 133 % of control

## NC(COc1ccccc1)Cc1ccccc1 (stereo unspecified)
dose: 200.0 mg/kg/injection, schedule: Q04DX003 (ip), vehicle: saline
  survivor count: 0 of 6
dose: 200.0 mg/kg/injection, schedule: Q04DX003 (ip), vehicle: suspension in saline
  survivor count: 0 of 6
dose: 400.0 mg/kg/injection, schedule: Q04DX003 (ip), vehicle: saline
  survivor count: 0 of 6

## C[C@]12CC[C@H]3[C@@H](CC[C@H]4N(CCCl)CCC[C@]34C)[C@@H]1CC[C@@H]2O
dose: 50.0 mg/kg/injection, schedule: Q01DX001 (ip), vehicle: saline
  T/C: 126 % of control
dose: 100.0 mg/kg/injection, schedule: Q01DX001 (ip), vehicle: saline
  survivor count: 0 of 6
